# Test results published in US20220257782A1, “PEPTIDE THERAPEUTICS FOR AUTOIMMUNE DISEASES AND INFLAMMATORY DISEASES” (GENESEN CO., LTD., priority 2019, published 2022).
# Chains of the proteins cited; added tags and fusions are not shown. Residues count along the entry.
# UniProt Q9EPQ1, 26-795: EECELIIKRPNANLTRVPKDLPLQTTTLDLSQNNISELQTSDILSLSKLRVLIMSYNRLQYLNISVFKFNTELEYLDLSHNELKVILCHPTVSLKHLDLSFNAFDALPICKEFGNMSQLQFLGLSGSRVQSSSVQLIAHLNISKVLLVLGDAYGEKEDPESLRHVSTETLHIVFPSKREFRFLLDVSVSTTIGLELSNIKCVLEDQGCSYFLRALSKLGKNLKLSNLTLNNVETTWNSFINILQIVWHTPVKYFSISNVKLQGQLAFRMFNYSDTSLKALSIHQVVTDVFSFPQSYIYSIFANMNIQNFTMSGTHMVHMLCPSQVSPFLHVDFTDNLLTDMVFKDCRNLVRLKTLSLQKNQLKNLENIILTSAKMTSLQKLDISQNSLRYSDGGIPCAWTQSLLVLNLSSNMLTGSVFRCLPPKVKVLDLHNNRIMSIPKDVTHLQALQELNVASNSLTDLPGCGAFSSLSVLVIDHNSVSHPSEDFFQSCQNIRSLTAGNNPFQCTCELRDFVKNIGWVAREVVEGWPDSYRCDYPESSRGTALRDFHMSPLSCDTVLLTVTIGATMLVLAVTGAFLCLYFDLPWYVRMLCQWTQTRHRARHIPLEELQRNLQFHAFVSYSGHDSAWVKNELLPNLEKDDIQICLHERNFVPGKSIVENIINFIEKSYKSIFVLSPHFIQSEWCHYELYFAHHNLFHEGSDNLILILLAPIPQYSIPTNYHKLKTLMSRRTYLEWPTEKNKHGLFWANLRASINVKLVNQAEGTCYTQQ
# UniProt Q9QUN7, 25-784: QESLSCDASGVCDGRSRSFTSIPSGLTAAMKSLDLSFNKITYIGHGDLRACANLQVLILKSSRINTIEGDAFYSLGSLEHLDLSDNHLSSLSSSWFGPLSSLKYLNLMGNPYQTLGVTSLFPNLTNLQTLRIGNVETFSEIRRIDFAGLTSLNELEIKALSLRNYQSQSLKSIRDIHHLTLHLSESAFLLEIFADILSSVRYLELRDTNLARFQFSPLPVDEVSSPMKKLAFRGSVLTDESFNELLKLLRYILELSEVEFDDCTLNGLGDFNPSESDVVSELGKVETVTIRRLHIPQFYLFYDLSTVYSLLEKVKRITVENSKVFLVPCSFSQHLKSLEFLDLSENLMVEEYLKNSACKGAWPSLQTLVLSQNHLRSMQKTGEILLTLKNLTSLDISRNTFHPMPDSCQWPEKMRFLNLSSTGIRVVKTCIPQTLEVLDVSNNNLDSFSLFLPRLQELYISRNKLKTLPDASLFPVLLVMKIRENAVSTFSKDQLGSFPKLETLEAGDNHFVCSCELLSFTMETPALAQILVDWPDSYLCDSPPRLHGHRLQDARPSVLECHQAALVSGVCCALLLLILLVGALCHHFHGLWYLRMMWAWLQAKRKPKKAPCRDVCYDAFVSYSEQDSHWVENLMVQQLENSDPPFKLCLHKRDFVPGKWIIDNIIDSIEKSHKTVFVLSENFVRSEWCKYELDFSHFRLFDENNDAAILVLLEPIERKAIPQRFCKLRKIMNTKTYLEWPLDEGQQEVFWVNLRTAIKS
# UniProt O00206, 24-839: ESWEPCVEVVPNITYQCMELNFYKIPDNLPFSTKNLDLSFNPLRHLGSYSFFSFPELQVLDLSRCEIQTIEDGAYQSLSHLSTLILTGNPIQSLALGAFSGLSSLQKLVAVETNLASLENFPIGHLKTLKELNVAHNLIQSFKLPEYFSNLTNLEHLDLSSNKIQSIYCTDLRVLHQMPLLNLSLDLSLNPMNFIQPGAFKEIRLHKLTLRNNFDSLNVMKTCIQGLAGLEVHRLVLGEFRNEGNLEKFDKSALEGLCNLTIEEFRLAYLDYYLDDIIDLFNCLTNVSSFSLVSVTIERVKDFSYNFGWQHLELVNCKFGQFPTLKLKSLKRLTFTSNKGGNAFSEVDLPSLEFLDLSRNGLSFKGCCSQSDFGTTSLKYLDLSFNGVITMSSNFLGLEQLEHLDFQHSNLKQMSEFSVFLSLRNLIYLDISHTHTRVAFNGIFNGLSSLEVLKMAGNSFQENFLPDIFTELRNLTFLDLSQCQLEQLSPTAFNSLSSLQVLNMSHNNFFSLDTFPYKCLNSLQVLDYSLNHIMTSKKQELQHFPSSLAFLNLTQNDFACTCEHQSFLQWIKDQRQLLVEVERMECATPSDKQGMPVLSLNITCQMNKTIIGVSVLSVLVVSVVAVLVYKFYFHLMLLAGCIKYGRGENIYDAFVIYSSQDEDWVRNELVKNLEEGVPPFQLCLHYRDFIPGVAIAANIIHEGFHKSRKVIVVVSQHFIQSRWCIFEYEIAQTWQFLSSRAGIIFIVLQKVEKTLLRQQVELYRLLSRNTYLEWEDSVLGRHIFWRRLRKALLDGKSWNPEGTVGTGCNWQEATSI
# Part of at least one peptide drawing is inferred or uncertain, most often the ends. Ends that are not written are not given here.
# Tests used:
# TLR4 signaling = test: Intracellular NO and ROS and NO secretion in LPS-stimulated RAW264.7 cells; assay type: cell-based, mouse
# NF-κB (p-p65) = test: Confocal microscopy of p-p65 in LPS-stimulated RAW264.7 cells; assay type: cell-based, mouse; details: MIP2 50 μM one hour before LPS 100 ng/mL; FIG. 3D
# TLR9 = target: T1, TLR9 (Mus musculus, UniProt Q9EQU3); test: TNF-α secretion in RAW264.7 cells stimulated by CpG-ODN; assay type: cell-based; details: FIG. 1F
# T1 construct: the level of TNF-α secretion was measured in RAW264.7 cells after stimulating by other TLR ligands; endogenous in cells; host or cells: RAW264.7
# T1 sequence (Q9EQU3 26-1032): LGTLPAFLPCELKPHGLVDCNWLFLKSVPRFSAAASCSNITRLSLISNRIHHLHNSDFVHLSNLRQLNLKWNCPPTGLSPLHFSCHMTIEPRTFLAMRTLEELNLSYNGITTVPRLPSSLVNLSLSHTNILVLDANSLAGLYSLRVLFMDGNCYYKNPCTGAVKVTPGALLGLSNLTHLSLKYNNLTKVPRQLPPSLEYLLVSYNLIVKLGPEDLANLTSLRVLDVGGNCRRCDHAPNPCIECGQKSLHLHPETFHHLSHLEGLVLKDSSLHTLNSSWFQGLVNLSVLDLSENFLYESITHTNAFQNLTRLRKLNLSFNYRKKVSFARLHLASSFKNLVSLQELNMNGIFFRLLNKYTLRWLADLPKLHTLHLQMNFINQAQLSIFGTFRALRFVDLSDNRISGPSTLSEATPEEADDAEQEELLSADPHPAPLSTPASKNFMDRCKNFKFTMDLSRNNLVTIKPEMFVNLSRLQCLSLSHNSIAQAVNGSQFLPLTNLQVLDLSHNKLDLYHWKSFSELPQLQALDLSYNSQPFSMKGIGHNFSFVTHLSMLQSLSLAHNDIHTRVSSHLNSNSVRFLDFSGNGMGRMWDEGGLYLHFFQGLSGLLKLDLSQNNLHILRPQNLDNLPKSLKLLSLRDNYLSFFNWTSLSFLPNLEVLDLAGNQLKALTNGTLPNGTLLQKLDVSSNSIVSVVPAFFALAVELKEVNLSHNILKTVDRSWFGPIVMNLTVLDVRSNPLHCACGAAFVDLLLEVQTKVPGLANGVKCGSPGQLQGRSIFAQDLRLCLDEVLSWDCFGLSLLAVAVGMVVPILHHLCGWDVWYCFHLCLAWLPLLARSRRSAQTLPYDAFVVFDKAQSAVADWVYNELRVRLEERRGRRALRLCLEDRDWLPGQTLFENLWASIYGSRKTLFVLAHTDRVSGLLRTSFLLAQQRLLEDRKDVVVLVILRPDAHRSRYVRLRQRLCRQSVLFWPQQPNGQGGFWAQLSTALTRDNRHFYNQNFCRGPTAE
# [1] = tested on: lupus-prone mice (MRL/lpr); test: SLE mouse model (MRL/lpr); assay type: in vivo
# TLR1/2 = target: T2, TLR1/2 (Mus musculus, UniProt Q9EPQ1+Q9QUN7); test: TNF-α secretion in RAW264.7 cells stimulated by PAM3CSK4; assay type: cell-based; details: FIG. 1F
# T2 construct: the level of TNF-α secretion was measured in RAW264.7 cells after stimulating by other TLR ligands; endogenous in cells; host or cells: RAW264.7
# TLR4 = target: T3, TLR4 (Homo sapiens, UniProt O00206); test: SEAP activity assay in LPS-stimulated HEK-BLUE hTLR4 cells; assay type: cell-based; details: LPS 100 ng/mL, FIG. 1C
# T3 construct: host or cells: HEK-Blue hTLR4 (HEK293-derived reporter line)
# NLRP3 = NLRP3 pathway in LPS-primed, ATP-treated THP-1 cells; assay type: cell-based, human
# [2] = tested on: MyD88- and TRIF-dependent TLR4 signaling; test: Western blot analysis in LPS-stimulated RAW264.7 cells; assay type: cell-based, mouse
# [3] = LPS 100 ng/mL 4 hours, ATP 10 mM, THP-1, FIG. 4C
# [4] = LPS-stimulated RAW264.7, FIG. 3A
# [5] = LPS-stimulated RAW264.7, FIG. 3B
sequence,measurement,setting,value
RQIKIWFQNRRMKWKKPWCKYQMLQALT [MIP2],intracellular release of NO,"TLR4 signaling; DAF-FM, FIG. 3G",completely inhibits
same,generation of intracellular ROS,"TLR4 signaling; DCF-DA, FIG. 3H",completely inhibits
same,extracellular release of NO,TLR4 signaling; FIG. 3F,completely inhibits
same,phosphorylation of the p65 subunit of NF-κB and its translocation into the nucleus,NF-κB (p-p65),completely inhibited
same,"inhibition of TNF-α secretion, TLR9",TLR9,inhibited in a concentration-dependent manner
same,urine albumin levels,"[1]; MRL/lpr, FIG. 6F",significantly reduced
same,serum-IL6 levels,"[1]; MRL/lpr, FIG. 6I",significant reduction
same,serum-C3,"[1]; MRL/lpr, FIG. 6J",elevation
same,"kidney histology (H&E and PAS): mesangial cells, endothelial cell proliferation, inflammatory cell invasion around the glomeruli","[1]; MRL/lpr, FIG. 6K",substantially restored
same,splenomegaly,"[1]; MRL/lpr, FIGS. 6C to 6E",significantly improved
same,size and weight of lymph nodes,"[1]; MRL/lpr, FIGS. 6D, 6E, 2G",significantly reduced
same,hair loss,"[1]; MRL/lpr, i.p. 10 nmol/g for 20 days, FIG. 6A",significant decrease of hair loss
same,body weight,"[1]; MRL/lpr, standard diet, FIG. 6B",prevents weight gain/loss
same,serum ANA,"[1]; compared to untreated mice, FIG. 6G",significant reductions
same,serum anti-dsDNA antibodies,"[1]; compared to untreated mice, FIG. 6H",significant reductions
same,"inhibition of TNF-α secretion, TLR1/2",TLR1/2,inhibited in a concentration-dependent manner
same,inhibition of LPS-stimulated secreted alkaline phosphatase (SEAP) signal,TLR4,concentration-dependent inhibition
same,NLRP3 expression,NLRP3; [3],substantially inhibited
same,pro-IL-1β expression,NLRP3; [3],substantially inhibited
same,induction of processed IL-1β (ELISA),"NLRP3; LPS-sensitized ATP-treated cells, bottom of FIG. 4C",significantly inhibited
same,phosphorylation of ERK,[2]; [4],substantially inhibits
same,phosphorylation of JNK,[2]; [4],substantially inhibits
same,expression of ATF3,[2]; [5],inhibited
same,phosphorylation of IRF3,[2]; [5],inhibited
same,p38 expression,[2]; MIP2-treated RAW264.7 cells,slightly suppressed
same,Iκ-Bα degradation,"[2]; RAW264.7, FIG. 3C",stopped Iκ-Bα degradation
same,LPS-induced phosphorylated NF-κB (p-p65),"[2]; RAW264.7, FIG. 3C",inhibited
same,expression of COX2,"[2]; RAW264.7, FIG. 3E",completely inhibits
same,expression of iNOS,"[2]; RAW264.7, FIG. 3E",completely inhibits
